Patent US8604066B2 (priority 2007, dated 2013)
At least one compound was matched to its structure with a doubt left.

Tested on: FVB KO (knock-out) mice for the genes coding for the OCT 1 and 2
Conditions: mouse, in vivo

C[n+]1ccccc1/C=N/O [PRX, pralidoxime]
activity (antidotic effect) when the OCT are blocked: extended
correction of the respiratory frequency: almost complete
persistence of the correction of the respiratory frequency: continues throughout the entire duration of the observation
